Data set [1] can be described thus: Drug library screen, cell viability (CellTiter-Glo). The format is cell-based. The settings on record: human; HCT116 ARID1A-WT; 10 μM for 5 days; relative to cells treated with solvent (DMSO). As for the experimental part: (§1) ARID1A-WT and ARID1A-KO HCT116 cancer cells were used for screening assays. […] Cell viability was assessed after 5 days using the CellTiter-Glo Luminescent Cell Viability Assay (Promega). Luminescence was measured using an Envision Multi-label plate reader (PerkinElmer). The luminescence reading was used to determine the cell viability relative to that of cells treated with solvent (DMSO). Candidate compounds were considered if viability of ARID1A-KO cells was less than […] was more than 80%.
A general note: ATP-based viability assays read luminescence as a measure of living cells.

Another data set deals with ARID1A-KO HCT116 cells. The description is as above. The format is cell-based. The settings on record: Homo sapiens, HCT-116, 120 h, 10 μM for 5 days, relative to cells treated with solvent (DMSO). As for the experimental part:
as §1

Turning to `CCN(CC)CC(=O)Nc1c(C)cccc1C` [Lidocaine], the viability (as a rule, a read-out of living cells in per cent, often relative to untreated cells) at 5 days, 10 μM in data set [1] was 103%. The viability at 10 µM in the data set with ARID1A-KO HCT116 cells turned out to be 111%.

The values are drawn from US20220087987A1, “A METHOD FOR TREATING SWI/SNF COMPLEX-DEFICIENT CANCERS COMPRISING GLUTATHIONE (GSH) METABOLIC PATHWAY INHIBITOR” (National Cancer Center, priority 2018, published 2022).
